# Screening data, single-dose tests

Amino acid sequences for entries named in this document (tags omitted).
UniProt P9WPC5, whole entry: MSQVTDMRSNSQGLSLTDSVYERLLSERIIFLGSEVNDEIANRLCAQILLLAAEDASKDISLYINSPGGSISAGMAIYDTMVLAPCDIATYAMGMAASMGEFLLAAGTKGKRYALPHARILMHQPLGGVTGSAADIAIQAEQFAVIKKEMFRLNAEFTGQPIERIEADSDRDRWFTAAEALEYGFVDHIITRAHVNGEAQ
UniProt P9WPC3, whole entry partner: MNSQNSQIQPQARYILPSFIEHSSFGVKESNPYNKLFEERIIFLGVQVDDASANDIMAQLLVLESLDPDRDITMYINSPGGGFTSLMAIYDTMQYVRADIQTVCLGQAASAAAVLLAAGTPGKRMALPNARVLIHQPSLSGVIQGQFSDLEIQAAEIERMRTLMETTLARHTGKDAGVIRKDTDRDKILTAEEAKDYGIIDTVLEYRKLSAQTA
UniProt P9WFT3, whole entry: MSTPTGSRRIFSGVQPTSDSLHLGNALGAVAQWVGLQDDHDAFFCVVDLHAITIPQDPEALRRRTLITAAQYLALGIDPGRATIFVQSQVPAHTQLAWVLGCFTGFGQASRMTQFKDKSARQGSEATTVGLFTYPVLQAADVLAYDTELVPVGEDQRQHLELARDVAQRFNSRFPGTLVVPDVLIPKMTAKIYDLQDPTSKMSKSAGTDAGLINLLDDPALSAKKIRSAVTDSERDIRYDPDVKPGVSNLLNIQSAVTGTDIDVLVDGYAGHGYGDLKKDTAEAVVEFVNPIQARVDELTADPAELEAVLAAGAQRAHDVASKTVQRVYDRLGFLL
UniProt P9WNZ1, whole entry: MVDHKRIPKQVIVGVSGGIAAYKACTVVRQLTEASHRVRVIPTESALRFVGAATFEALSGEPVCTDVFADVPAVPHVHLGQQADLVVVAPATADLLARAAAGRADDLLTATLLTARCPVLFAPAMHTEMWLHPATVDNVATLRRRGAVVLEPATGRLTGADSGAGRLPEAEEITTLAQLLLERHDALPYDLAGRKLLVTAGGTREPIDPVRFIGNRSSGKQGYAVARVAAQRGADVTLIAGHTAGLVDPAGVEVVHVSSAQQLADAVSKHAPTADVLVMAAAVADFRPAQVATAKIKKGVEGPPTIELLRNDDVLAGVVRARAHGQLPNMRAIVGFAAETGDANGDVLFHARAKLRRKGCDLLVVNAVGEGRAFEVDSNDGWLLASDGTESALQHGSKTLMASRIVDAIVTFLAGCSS

ClpP1P2: 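Protease assay of ClpP1P2, read by the AMC dye that it sets free. Target: ClpP1P2, Mycobacterium tuberculosis (UniProt P9WPC5 and UniProt P9WPC3). Concentration: 50 µM. Direction is inferred from only a few compounds that gave an IC50; most scored high, so higher reads as stronger inhibition. Most other retested compounds had strongly negative values. About 69,000 compounds were tested under these conditions; 0.015% (about 10) showed 50% or more at least once.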
Toxoplasma: 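Assay of Toxoplasma gondii numbers, read through their beta-galactosidase reporter with a colour substrate. Tested at 10 µM. The record gives no direction; the compounds picked for IC50 retests had high values, so higher reads as fewer parasites. Of about 67,000 compounds tested this way, about 260 (0.38%) reached 50% or more in at least one test.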
MtTrpRS: 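Tryptophan-tRNA ligase, Mycobacterium tuberculosis (UniProt P9WFT3). Enzyme assay of tryptophanyl-tRNA synthetase; the read-out is not stated. Compounds at 10 µM. Direction is not recorded; retested compounds ran higher, which suggests that high means inhibition. Size under these conditions: about 65,000 compounds, about 64 of them at 50% or above in at least one test.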
CoaBC: 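Coenzyme A biosynthesis protein CoaBC, Mycobacterium tuberculosis (UniProt P9WNZ1). Enzyme assay of CoaBC with a phosphate dye (Biomol Green) read at 650 nm. Compounds at 30 µM. Direction is inferred from only a few compounds that gave an IC50; most scored high, so higher reads as stronger inhibition. Most strong results did not repeat in a second test. Of about 67,000 compounds tested this way, about 40 (0.06%) reached 50% or more in at least one test.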

Results are given as percent effect.
The record does not define 0% and 100%; most values in the screen are far below 50% and negative numbers occur (in some assays of this library far below -100).
Compounds were drawn at random from those tested, without regard to their results.
Two or more numbers in one place are separate tests of the same structure; such repeats can differ widely.
A dash means the value is not listed here; it may have been measured.

compound,ClpP1P2,Toxoplasma,MtTrpRS,CoaBC
Cc1c(CN2CCc3[nH]cnc3C2C(=O)O)[nH]c2ccc(F)cc12 (stereo not shown),-7.318%,-17.87%,3.704%,2.92%
Cn1cccc1C(=O)N1CCCCC12CC(=O)N(c1cccnc1)C2 (stereo not shown),1.286%,-,-3.81%,-5.161%
O=C(Nc1cccnc1)C1CCCN(c2cc(-n3cccn3)ncn2)C1 (stereo not shown),-0.8991%,-15.06%,0.9878%,-1.48%
Cc1cncc(C2CCCN(Cc3cccn3C)C2)n1 (stereo not shown),10.68%,-7.153%,-3.75%,0.3927%
Cc1ccccc1CSc1nc(=O)n(CCO)c2c1CCC2,0.5897%,10.27%,1.72%,4.619%
CNC(=O)[C@H]1C[C@@H]2CCN(c3nnc(C)s3)C[C@@H]2O1,6.852%,-,-6.88%,0%
Cc1nc(C)c(C(=O)N2CCc3nc4c(C)csc4c(=O)n3CC2)s1,-8.686%,-,-,0.4854%
CC(C)c1nc(C2CCCN(C(=O)Cc3cccnc3)C2)no1 (stereo not shown),0.3179%,2.01%,1.956%,2.728%
CC(C)(C)SCCN1CC(=O)N2CC[C@@H](O)C[C@H]2C1=O,-5.043%,-,4.088%,-0.6472%
O=C(NCc1cccnc1)N1CCC2(CC(=O)N(c3ccsc3)C2)C1 (stereo not shown),8.898%,-,-6.799%,2.118%
CC(CC#N)N1CCN(C(=O)OC(C)(C)C)CC1 (stereo not shown),3.208%,0.059%,2.999%,0.3241%
CCCc1nc(CN(CC)C(=O)c2ccc(OC)c(OC)c2)no1,-6.693%,-5.664%,-2.204%,2.297%
COCC(NC(=O)c1ccoc1C)c1cccc(C(F)(F)F)c1 (stereo not shown),-7.554%,8.705%,3.163%,2.792%
O=C(c1cc[nH]n1)N1CCC(c2nccn2Cc2ccncc2)CC1,-9.584%,-28.47%,2.101%,0.3619%
CC(=O)N1N=C(c2ccccc2)OC1C(=O)NCCc1ccc(Cl)cc1 (stereo not shown),7.003%,16.59%,-,1.214%
[H][C@@]12CCN(C(=O)CC)C[C@]1([H])OCCN(Cc1ccc(OC)cc1)C2=O,-,-2.324%,-,-
CCN1CCN(C(=O)c2ccc3c(c2)CCCN3)[C@H]2CS(=O)(=O)C[C@H]21,-0.01284%,-,-3.846%,5.6%
COc1ccccc1CN1C(=O)O[C@@H]2CN(Cc3cccc(C)n3)C[C@@H]21,-3.952%,-,14.35%,-7.923%
CC(C)Cn1cc(NC(=O)NCC2CCN(c3ccccc3)C2)cn1 (stereo not shown),-5.239%,-53.38%,-5.357%,2.857%
Cc1ccccc1C1(C(=O)NCCN(C(C)C)C(C)C)CCOCC1,-20.17%,14.24%,-0.5348%,3.421%
COCc1nc(CN2CC(=O)N(C)c3ccccc3C2=O)no1,-2.687%,-3.335%,0.09099%,-8.434%
Cc1cccc(N2CCC(NC(C)c3cccs3)CC2)n1 (stereo not shown),-6.301%,6.629%,7.053%,17.49%
CCc1nnc(C2Cc3ccccc3CN2Cc2cc(C)no2)o1 (stereo not shown),-3.137%,5.625%,1.321%,-5.217%
CC(=O)c1cn(CCC(=O)Nc2c3c(nn2C)CSC3)c2ccccc12,25.41%,23.44%,-2.309%,-4.481%
CC(C)NC(=O)[C@@H]1C[C@H](N)CN1C(=O)C1(c2ccc(Cl)cc2)CCC1,10.91%,17.35%,-2.039%,24.61% & 5.67%
CN1CCOC[C@H]1c1nc(-c2cccnc2)c[nH]1,-4.425%,2.033%,-1.732%,12.87%
Cc1occc1CN(C)C(=O)Nc1ccc(=O)n(C)c1,0.02024%,-9.346%,7.043%,0.2481%
O=C(O)C(F)(F)F.[H][C@@]12CCN(Cc3ccoc3)C[C@]1([H])OCCN(c1ccccc1)C2=O,-,-1.83%,-,-
O=C(O)C(F)(F)F.O=C(O)C(F)(F)F.[H][C@@]12CCCO[C@]1([H])[C@H](N(C)Cc1ccco1)CN(Cc1nccs1)C2,-,3.032%,-,-
CSCCC(NC(=O)c1ccc2ccccc2n1)C(=O)NC(C)C (stereo not shown),2.664%,-6.369%,-1.326%,13.64%
Cn1cc(-c2cc(-c3cnn(C)c3)n(CC(=O)NC3CC3)n2)cn1,-10.95%,-15.97%,2.016%,5.097%
O=C(O)C(F)(F)F.O=C(c1ccco1)N1CCCC2(CN(Cc3ccsc3)CCO2)C1 (stereo not shown),-,-3.448%,-,-
FC(F)(F)c1c[nH]c(C2CCN(c3ncccn3)CC2)n1,5.152%,4.435%,-1.358%,6.341%
CCc1nc2c(c(NC3CC3)n1)CCN(C(=O)Cc1nonc1C)CC2,-14.01%,5.118%,0.9762%,-1.555%
CN(CCCNC(=O)c1cccc(OCC(N)=O)c1)CC(F)(F)F,-0.2793%,14.43%,-3.42%,0.4545%
CC(C)CC(NCc1cscn1)c1ccccn1 (stereo not shown),-15.95%,10.29%,-3.888%,4.854%
Cn1cc(-c2cc(C(F)(F)F)nn2CCC#N)cn1,-27.55%,12.08%,3.947%,4.082%
CN(CCC(O)c1ccccc1)Cc1ccccc1C#N (stereo not shown),1.167%,13.04%,-,4.854%
CCC(C(=O)Nc1ccc2cn(CC)nc2c1)N1CCCC1=O (stereo not shown),-5.407%,-13.01%,2.451%,3.03%

The first 3 entries again:

For Cc1c(CN2CCc3[nH]cnc3C2C(=O)O)[nH]c2ccc(F)cc12 (stereo not shown) the result was ClpP1P2: -7.318%; Toxoplasma: -17.87%; MtTrpRS: 3.704%; CoaBC: 2.92%.
For Cn1cccc1C(=O)N1CCCCC12CC(=O)N(c1cccnc1)C2 (stereo not shown) the result was ClpP1P2: 1.286%; MtTrpRS: -3.81%; CoaBC: -5.161%.
For O=C(Nc1cccnc1)C1CCCN(c2cc(-n3cccn3)ncn2)C1 (stereo not shown) the result was ClpP1P2: -0.8991%; Toxoplasma: -15.06%; MtTrpRS: 0.9878%; CoaBC: -1.48%.

Source: ChEMBL document CHEMBL3988442, “University of Dundee, Small-Polar-MMV Screening Library” (2021).